# Results reported in publication PMC11289934.
# The chains behind the UniProt entries cited, without tags or fusion partners.
# UniProt Q9Y6M1: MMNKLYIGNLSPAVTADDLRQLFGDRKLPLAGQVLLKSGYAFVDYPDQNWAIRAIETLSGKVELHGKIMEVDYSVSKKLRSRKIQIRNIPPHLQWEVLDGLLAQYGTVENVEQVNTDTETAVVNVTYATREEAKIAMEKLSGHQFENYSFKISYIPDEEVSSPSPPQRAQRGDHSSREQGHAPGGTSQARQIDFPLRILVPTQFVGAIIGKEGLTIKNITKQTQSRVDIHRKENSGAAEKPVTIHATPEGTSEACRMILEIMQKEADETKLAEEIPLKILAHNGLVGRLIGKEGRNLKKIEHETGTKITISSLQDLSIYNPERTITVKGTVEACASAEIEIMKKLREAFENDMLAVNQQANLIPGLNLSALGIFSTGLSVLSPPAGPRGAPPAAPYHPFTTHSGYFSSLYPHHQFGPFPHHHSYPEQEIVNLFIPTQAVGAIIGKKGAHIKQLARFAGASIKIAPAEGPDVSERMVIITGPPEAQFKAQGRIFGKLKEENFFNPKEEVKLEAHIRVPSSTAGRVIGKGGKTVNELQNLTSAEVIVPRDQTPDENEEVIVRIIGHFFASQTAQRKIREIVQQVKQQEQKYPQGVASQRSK
# UniProt Q14258: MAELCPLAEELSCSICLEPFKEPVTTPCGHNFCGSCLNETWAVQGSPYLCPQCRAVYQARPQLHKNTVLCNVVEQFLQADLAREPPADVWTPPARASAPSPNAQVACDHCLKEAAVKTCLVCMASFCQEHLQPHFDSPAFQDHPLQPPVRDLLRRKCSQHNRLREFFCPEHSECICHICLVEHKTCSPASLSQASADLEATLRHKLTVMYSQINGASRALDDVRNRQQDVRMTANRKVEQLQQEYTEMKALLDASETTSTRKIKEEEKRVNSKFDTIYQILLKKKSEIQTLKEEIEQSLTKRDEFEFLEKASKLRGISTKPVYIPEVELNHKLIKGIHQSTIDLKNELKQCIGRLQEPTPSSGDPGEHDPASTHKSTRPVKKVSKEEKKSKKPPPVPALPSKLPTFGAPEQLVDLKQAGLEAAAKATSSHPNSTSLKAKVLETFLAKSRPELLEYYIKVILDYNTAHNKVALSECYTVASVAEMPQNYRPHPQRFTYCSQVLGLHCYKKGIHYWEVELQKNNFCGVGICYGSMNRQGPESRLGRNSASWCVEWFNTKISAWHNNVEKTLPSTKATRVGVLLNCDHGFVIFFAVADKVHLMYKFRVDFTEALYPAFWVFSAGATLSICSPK
# Molecular target: IGF2BP2 (human (endogenous in MKN-45 and MKN-28)) (UniProt Q9Y6M1)
# Test: affinity purification with mass spectrometry; mass spectrometry (Fig. 5B); bait, cells and conditions not told
substance,measurement,value
E3 ligase TRIM25 (from UniProt Q14258 1-630) (enzyme),binding,binds

# These are yes or no findings as the source states them, for the method shown. In cells and extracts the contact can be indirect. A yes stands for co-enrichment or nearness to the bait. Other partners may have been found.
